In article PMC11533991:
Results are given in words; binding and its absence hold for the method and conditions named. Where a sequence is shown, tags or fusion partners need not be part of it.

Tests used:
[1] = molecular target: MltG from Mycobacterium abscessus, N-terminal-truncated (residues 85-428) (Mycobacterium abscessus) (UniProt B1MCF7); experiment: SEC; Superdex 200 Increase 10/300GL, 20 mM Tris-HCl (pH 8.0), 150 mM NaCl; elution at roughly 15.5 ml between ovalbumin (44 kDa) and myoglobin (17 kDa); both purified
[2] = molecular target: MltG from Mycobacterium abscessus, N-terminal-truncated (residues 85-428) (Mycobacterium abscessus) (UniProt B1MCF7); experiment: SEC-MALS; Superdex 200 10/300, 20 mM Tris-HCl (pH 8.0), 150 mM NaCl, room temperature, flow rate 0.4 ml/min; DAWN-TREOS MALS detector; both purified

- binding [1]: no binding
- binding [2]: no binding
B1: MltG from Mycobacterium abscessus, N-terminal-truncated (residues 85-428) (domain or fragment, UniProt B1MCF7 85-428)
chain: VTDYSGSGVKDFVFEVHRGDTTKVIGQRLKDEGVVATPSAFTDAAAGNQAIAAIQPGFYKLRTKIAGKEAVARLAEQDNRVGLLVIPEGRQLDDVSAVSNGAVTEGIFTLIARASCVDLDGDKHCVAASDLRQAATTASQGELDVPDWASNGVNAVRDDHRRIEGLIAAGRWDFDPMAEPEQILASLIRESNAQYQQLGLLSSDAAGLSPYQVLVVASLLQREAKPRDFAKVARVVYNRLAKHQKLEFDSTVNYPLDRQEVATTDEDRERKTLWNTYVSQGLPGTPISSPSPEALQAAERPESGDWLYFVTIDAEGTTLFTADYNEHLANIELAKKNGILDSAR
